From patent publication US20260193296A1 (priority 2023, published 2026)
At least one compound was matched to its structure with a doubt left.

System: Huanglongbing pathogen CLas
Type: cell-based, Candidatus Liberibacter asiaticus (CLas)
Settings: pretreated at 45° C. for 20 hours, used at 1 μM, 48 h, compared with BSA; FIG. 4D

In the case of CN(C)[C@@H]1C(O)=C(C(N)=O)C(=O)[C@@]2(O)C(O)=C3C(=O)c4c(O)cccc4[C@@](C)(O)[C@H]3C[C@@H]12 [tetracycline, reference compound], the “inhibitory effect on CLas after heat pretreatment” value is reported as “significantly reduced”.
